# “And” between values parts separate entries of the source, which are not always exact repeats. Identical values can stand only once. Inconclusive means that the source gave no clear call. Such entries were picked first, then a sample of the others. For some of these results: Potencies beside an inconclusive call are fits to weak or partial responses and may not hold up. The source made the active and inactive calls. How the source made its calls: active means hit-call score of the fitted dose curve at least 0.9, where 1 is the maximum; inconclusive means response in the unintended direction; inactive means score below 0.9.
# Amino acid sequences for entries named in this document (tags omitted). A change or cut given only in a name is not applied to a line headed by its entry.
# UniProt P10275: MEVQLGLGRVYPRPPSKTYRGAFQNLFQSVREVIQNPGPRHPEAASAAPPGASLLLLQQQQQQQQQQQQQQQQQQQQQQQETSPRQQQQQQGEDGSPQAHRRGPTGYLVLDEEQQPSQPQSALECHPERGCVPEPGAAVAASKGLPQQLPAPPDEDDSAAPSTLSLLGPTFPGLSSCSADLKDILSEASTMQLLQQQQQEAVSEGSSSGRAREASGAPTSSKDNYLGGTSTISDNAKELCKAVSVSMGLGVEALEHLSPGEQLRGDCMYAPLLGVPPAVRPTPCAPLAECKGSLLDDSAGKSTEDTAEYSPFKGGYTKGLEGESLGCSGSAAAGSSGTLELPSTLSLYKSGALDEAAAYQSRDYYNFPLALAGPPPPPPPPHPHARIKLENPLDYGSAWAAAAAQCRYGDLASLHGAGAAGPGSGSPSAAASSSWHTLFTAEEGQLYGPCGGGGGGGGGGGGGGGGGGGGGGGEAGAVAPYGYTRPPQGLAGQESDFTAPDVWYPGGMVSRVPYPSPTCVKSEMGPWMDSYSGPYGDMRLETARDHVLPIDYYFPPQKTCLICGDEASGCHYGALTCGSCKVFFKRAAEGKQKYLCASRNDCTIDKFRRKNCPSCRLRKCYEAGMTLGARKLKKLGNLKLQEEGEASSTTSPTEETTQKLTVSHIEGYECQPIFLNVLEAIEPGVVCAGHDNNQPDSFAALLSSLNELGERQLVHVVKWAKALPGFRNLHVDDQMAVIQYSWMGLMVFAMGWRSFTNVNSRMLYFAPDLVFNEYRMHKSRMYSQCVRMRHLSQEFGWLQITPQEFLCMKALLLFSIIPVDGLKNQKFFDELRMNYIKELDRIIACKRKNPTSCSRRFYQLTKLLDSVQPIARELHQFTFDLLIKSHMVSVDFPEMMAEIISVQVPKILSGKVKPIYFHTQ
# UniProt P06212, whole entry, looked up: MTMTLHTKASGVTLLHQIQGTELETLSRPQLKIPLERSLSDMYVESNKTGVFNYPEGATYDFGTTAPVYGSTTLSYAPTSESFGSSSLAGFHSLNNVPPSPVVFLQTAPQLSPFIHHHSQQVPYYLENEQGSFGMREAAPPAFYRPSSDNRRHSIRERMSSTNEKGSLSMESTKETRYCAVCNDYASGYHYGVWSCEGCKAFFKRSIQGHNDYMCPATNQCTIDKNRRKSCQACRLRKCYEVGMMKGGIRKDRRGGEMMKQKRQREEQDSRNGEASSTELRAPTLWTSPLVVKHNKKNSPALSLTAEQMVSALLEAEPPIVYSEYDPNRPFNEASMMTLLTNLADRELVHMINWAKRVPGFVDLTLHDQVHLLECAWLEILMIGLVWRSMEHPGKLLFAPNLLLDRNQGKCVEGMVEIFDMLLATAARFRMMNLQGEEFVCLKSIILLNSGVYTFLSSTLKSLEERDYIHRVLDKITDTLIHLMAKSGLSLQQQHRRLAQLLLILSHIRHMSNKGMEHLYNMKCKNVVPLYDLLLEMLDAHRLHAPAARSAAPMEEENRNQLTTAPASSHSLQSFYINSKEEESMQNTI
# Assays:
# [1] = system: zebrafish Estrogen Receptor (ESR2A), gene 317734; assay: ATG_zfER2a_XSP1: Attagene TRANS-FACTORIAL Multi-Species (XSP1) HepG2 Assay for zebrafish Estrogen Receptor (ESR2A) (AID 2283778)
# In short: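 HepG2 cells transiently transfected with multiplexed GAL4-UAS reporter units and chimeric NR-GAL4 receptors; 24 h compound exposure with 3 nM 6-alpha-fluorotestosterone present. Reporter mRNA quantified by RT-PCR and capillary electrophoresis, gain-of-signal fitted relative to DMSO.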
# [2] = ACEA_ER_AUC_viability: ACEA Biosciences xCELLigence Real-Time Cell Analysis on Estrogen Receptor Agonism for Viability (AID 2283782);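 further: continuous compound exposure with impedance area under curve over 80 h; hit means loss of impedance signal meaning reduced cell growth or viability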
# In short: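 T-47D human breast cells in phenol red-free RPMI1640 with 10% charcoal-stripped FBS were dosed with an 8-point 1:4 dilution series from 100 uM top final concentration, in duplicate. Impedance-based growth was followed for 80 h; AUC analysed versus DMSO.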
# [3] = STM_H9_NormalizedViability: Cytotoxicity Assessment at 120 hours in the Stemina devTOX quickPredict H9 human embryonic stem cell (hESC)-based Assay (AID 2283784)
# In short: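 Chemicals are tested blinded on H9 human embryonic stem cells in the pluripotent state, with medium exchanged daily. After background correction, fluorescence from CellTiter-Fluor is scaled against 0.1% DMSO wells, and decreases are scored.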
# [4] = ACEA_AR_antagonist_AUC_viability: ACEA Biosciences xCELLigence Real-Time Cell Analysis on Androgen Receptor Antagonism for Viability (AID 2283776);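 further: 22Rv1 human prostate cancer cells growing on impedance electrode plates; area under impedance growth curve at 80 h after dosing as viability; hits lower the growth signal relative to DMSO meaning cytotoxicity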
# In short: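 Viability endpoint from label-free cell-index monitoring: 22Rv1 cultures treated with an eight-point 1:4 dilution series starting at 100 uM final, AUC at 80 h fitted against DMSO.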
# [5] = system: turtle Estrogen Receptor (ESR1), gene 101933533; assay: ATG_trERa_XSP1: Attagene TRANS-FACTORIAL Multi-Species (XSP1) HepG2 Assay for turtle Estrogen Receptor (ESR1) (AID 2283781)
# In short: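 HepG2 cells transiently transfected with GAL4-UAS reporter units and chimeric NR-Gal4 constructs, dosed for 24 h with 3 nM 6-alpha-fluorotestosterone present. Reporter mRNA was quantified by RT-PCR, fluorescent labelling and capillary electrophoresis, with gain of signal fitted relative to DMSO.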
# AR (gene 367) = AR (gene 367) (UniProt P10275); assay: ACEA_AR_agonist_80hr: ACEA Biosciences xCELLigence Real-Time Cell Analysis on Androgen Receptor Agonism for Proliferation (AID 2283783);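 further: hits increase impedance growth signal above DMSO baseline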
# In short: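 22Rv1 human prostate cancer cells were seeded after preconditioning in assay medium and monitored overnight, then dosed in an eight-point 1:4 dilution series from 100 uM (≤0.5% DMSO). Impedance-based growth was read at 80 h, gain-of-signal versus DMSO.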
# [6] = molecular target: chicken Estrogen Receptor (ESR1), ESR1 (gene 396099) (UniProt P06212); assay: ATG_chERa_XSP1: Attagene TRANS-FACTORIAL Multi-Species (XSP1) HepG2 Assay for chicken Estrogen Receptor (ESR1) (AID 2283779)
# In short: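 HepG2 cells transiently transfected with multiplexed GAL4-UAS reporter units expressing chimeric NR-Gal4 proteins; 3 nM 6-alpha-fluorotestosterone present. Reporter mRNA measured 24 h after dosing by RT-PCR, FAM labelling, HpaI digest and capillary electrophoresis; gain of signal versus DMSO.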
structure (smiles),measurement,setting,value
CCN(CC)C(=O)C(C)Oc1cccc2ccccc12 (stereo not drawn),AC50,[1],active: 25.8 µM
same,AC50,[2],inconclusive: 50 µM
same,outcome,[3],inactive
OCCCCO,AC50,[4],inconclusive: 16.6 µM
same,AC50,[2],inconclusive: 50 µM
CCCOCC(=Nc1ccc(Cl)cc1C(F)(F)F)n1ccnc1,AC50,[1],inconclusive: 5.44 µM
same,AC50,[5],inconclusive: 11.1 µM
same,AC50,[2],active: 23.1 µM
C#CCOS(=O)OC1CCCCC1Oc1ccc(C(C)(C)C)cc1 (stereo not drawn),AC50,[1],inconclusive: 100 µM
same,AC50,[2],active: 87.4 µM
same,AC50,[3],active: 3.86 µM
CCOP(=S)(OCC)SCSP(=S)(OCC)OCC,AC50,[2],inconclusive: 50 µM
c1ccc2c(c1)CCCC2,outcome,[4],inactive
same,outcome,AR (gene 367),inactive
COP(=S)(OC)Oc1ccc([N+](=O)[O-])c(C)c1,AC50,[5],active: 50.1 µM
same,outcome,[2],inactive
ClC1=C(Cl)[C@]2(Cl)[C@H]3[C@H]([C@@H]4C=C[C@H]3C4)[C@@]1(Cl)C2(Cl)Cl,AC50,[4],active: 18.1 µM
same,AC50,[2],active: 74.5 µM
same,AC50,[3],inconclusive: 5 µM
CC12CC1(C)C(=O)N(c1cc(Cl)cc(Cl)c1)C2=O (stereo not drawn),AC50,[5],active: 30.9 µM
same,AC50,[2],inconclusive: 2.56 µM and inconclusive: 8.89 nM
same,outcome,[2],inactive
same,AC50,AR (gene 367),inconclusive: 50 µM
O=S1OCC2C(CO1)C1(Cl)C(Cl)=C(Cl)C2(Cl)C1(Cl)Cl (stereo not drawn),AC50,[1],inconclusive: 10 µM
same,AC50,[2],active: 71.8 µM
same,outcome,AR (gene 367),inactive
CC(C)(O)c1cnn2c(-c3ccc(F)c(-c4c(F)cccc4C#N)c3)cnc2n1,AC50,[4],active: 51.1 µM
same,AC50,[2],inconclusive: 50 µM
same,AC50,AR (gene 367),inconclusive: 9.4 µM
Cc1c(COC(=O)[C@@H]2[C@H](/C=C(\Cl)C(F)(F)F)C2(C)C)cccc1-c1ccccc1,outcome,[1],inactive
same,outcome,[6],inactive
CCCCN(CCCC)SN(C)C(=O)Oc1cccc2c1OC(C)(C)C2,AC50,[4],active: 49.2 µM
same,AC50,[2],active: 79.2 µM
CCOC(=O)C(SP(=S)(OC)OC)c1ccccc1 (stereo not drawn),outcome,[2],inactive
Cc1[nH]c(=O)n(C(C)(C)C)c(=O)c1Cl,outcome,[4],inactive
same,AC50,AR (gene 367),inconclusive: 50 µM
CCC12COCN1COC2,outcome,[4],inactive
same,AC50,[2],inconclusive: 49.8 µM
CCOP(=S)(Oc1cnc(C(C)(C)C)nc1)OC(C)C (stereo not drawn),AC50,[4],active: 50 µM
same,AC50,[2],active: 81.4 µM
COP(=S)(OC)SCn1nnc2ccccc2c1=O,AC50,[4],active: 64.7 µM
same,AC50,[2],inconclusive: 83 µM
same,outcome,AR (gene 367),inactive

# Source: PubChem BioAssay (EPA / NIEHS)
